PubChem BioAssay AID493014 (National Center for Advancing Translational Sciences (NCATS), 2011)
The other results are listed elsewhere or left out. Further columns of the screen follow, without active or inactive calls. Most of these compounds were active or inconclusive in the main read-out, so they are no random draw. Potencies come from curve fits of mixed quality, noted in brackets.

Experiment: qHTS Assay to Find Inhibitors of Chronic Active B-Cell Receptor Signaling
Settings: ABC-DLBCL IkBa-CBG/CBR reporter, luminescence ratio (green luciferase fused to IkBa over red control in TMD8 lymphoma cells), 4 h
Method in brief: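 TMD8 human ABC-DLBCL cells with doxycycline-inducible IκBα–green luciferase fusion and unfused red luciferase, in 0.5% FBS medium; compounds up to 46 uM, 4 h at 37C. Green/red luminescence ratio, filter-overlap corrected, fitted to concentration-response curves.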

[1] = measured here: CBR red luminescence, cell number
[2] = measured here: IkBa-CBG green luminescence

| SMILES | AC50 [1] | AC50 [2] |
| --- | --- | --- |
| CCN(CC)P(=O)(Nc1ccc(C)cc1Br)c1ccc(N(C)C)cc1NC(=O)c1ccco1 (stereo not drawn) | 35.5 µM [falling, single point] |  |
| CC(C)(C)c1ccc(-c2ncccc2O)cc1 | 0.708 µM [rising, full curve, poor fit] |  |
| Cn1c(=O)c2c(nc(CN3CCC(C(N)=O)CC3)n2CCCc2ccccc2)n(C)c1=O | 13 µM [falling, single point] |  |
| O=C(Nc1ccc2c(c1)C(=O)NC2=O)c1ccc2ncsc2c1 | 15.8 µM [falling, partial curve, poor fit] |  |
| Clc1ccccc1CN1CCC(Cc2ccccc2)CC1 | 18.4 µM [rising, single point] |  |
| O=S(=O)(c1ccc2ccccc2c1)N1CCCOC1 | 31.6 µM [rising, single point] |  |
| Cc1c(C(=O)C(=O)NCCC2=CCCCC2)c2ccccc2n1C | 10.3 µM [rising, partial curve, poor fit] |  |
| CCOc1ccccc1NC=C1C(=O)OC(C)(C)OC1=O | 35.5 µM [rising, single point] |  |
| COc1ccc(NC(=O)c2cccc(-n3c(C)ccc3C)c2)c(OC)c1 | 7.31 µM [falling, partial curve] |  |
| COc1ccc(-c2nsc(SCC(=O)NCc3ccc4c(c3)OCO4)n2)cc1 | 2.31 µM [rising, full curve, poor fit] |  |
| COc1cccc(/C=C2\SC(=S)N(CCC(=O)N3CCCCC3CCO)C2=O)c1 (stereo not drawn) | 10 µM [falling, partial curve] |  |
| N#C/C(=N\Nc1ccc(Br)cc1)C(=N)N1CCOCC1 | 35.5 µM [falling, single point] |  |
| Cc1ccc(/C=C2\SC(=S)N(C3CCS(=O)(=O)C3)C2=O)o1 (stereo not drawn) | 20 µM [falling, partial curve, poor fit] |  |
| O=C(c1cnn(-c2cccc(F)c2)c1)c1ccccc1O | 35.5 µM [falling, single point] |  |
| Cc1cccc(/C=N/NC(=O)Cc2ccc(Cl)cc2)c1O | 0.282 µM [rising, full curve, poor fit] |  |
| O=C(Nc1ccccc1)C(=O)Nc1ccc2c(c1)N(C(=O)C1CC1)CCC2 | 4.11 µM [falling, partial curve] |  |
| O=C(/C=C\c1ccccc1)Nc1nccs1 | 3.26 µM [falling, full curve] |  |
| COc1ccc(C(=O)C2CCCN(Cc3cnc(N4CCOCC4)s3)C2)cc1F (stereo not drawn) | 12.6 µM [falling, partial curve, poor fit] |  |
| COc1ccc2ccccc2c1/C=N/NC(=O)c1sc(N)c(C#N)c1C | 29.1 µM [falling, single point] |  |
| O=C1NC(=O)[C@@H]2C3c4ccccc4C=CN3[C@H](C(=O)c3cccs3)[C@H]12 (stereo partly drawn) | 20 µM [falling, partial curve, poor fit] |  |
| O=C1/C(=C/c2ccncc2)CCc2ccccc21 | 17.8 µM [falling, single point] |  |
| COc1ccc(N2CCN(C(c3ccccc3)c3sc4nc(-c5ccco5)nn4c3O)CC2)cc1 (stereo not drawn) | 2.51 µM [rising, full curve, poor fit] |  |

| SMILES | AC50 [1] | AC50 [2] |
| --- | --- | --- |
| CCc1ccc(NC(=O)C(C)OC(=O)c2cccc(S(=O)(=O)N3CCc4ccccc4C3)c2)cc1 (stereo not drawn) | 5.8 µM [rising, partial curve] |  |
| CCN1C(=O)/C(=C2/C=Cc3ccccc3N2CC)SC1=S | 35.5 µM [rising, single point] |  |
| COc1ccc(C(=O)NC(=S)NNC(=O)Cc2cccs2)cc1 | 2.82 µM [rising, full curve, poor fit] |  |
| CSC1=N/C(=C\c2ccc(C)o2)C(=O)S1 | 20 µM [rising, single point] |  |
| CCSc1nc2ccc(OC)cc2cc1C#N | 1.46 µM [rising, full curve] |  |
| Cc1nc(NCC2CCCO2)c2nnn(Cc3c(F)cccc3Cl)c2n1 (stereo not drawn) | 35.5 µM [falling, partial curve, poor fit] |  |
| O=C(NCCc1ccccc1)C(=O)c1c[nH]c2ccccc12 | 1 µM [falling, full curve] |  |
| O=c1[nH]cnc(O)c1N=Nc1ccccc1 | 12.6 µM [falling, partial curve, poor fit] |  |
| O=C1NCCN/C1=C\C(=O)c1ccc(F)cc1 | 11.2 µM [falling, partial curve] |  |
| Cc1noc(C)c1COc1ccc(CC(=O)NC2CCCCCC2)cc1 | 35.5 µM [rising, partial curve, poor fit] |  |
| COc1ccccc1NC(=O)CSC1=Nc2ccccc2C2=NC(CCC(=O)NCCc3ccccc3)C(=O)N12 (stereo not drawn) | 8.91 µM [falling, partial curve, poor fit] |  |
| CCN1C(=O)[C@H]2[C@@H](c3ccc(-c4ccc(F)cc4)cc3)N3CCCC[C@@]3(C(=O)OC)[C@H]2C1=O | 7.31 µM [falling, partial curve] |  |
| CCN(CC(=O)Nc1c(C(=O)OC)[nH]c2ccc(C)cc12)c1ccc2c(c1)OCO2 | 11.2 µM [falling, partial curve] |  |
| CCOC(=O)c1c(-c2ccc(C)o2)csc1NC(=O)CSc1nncs1 | 0.224 µM [falling, full curve, poor fit] |  |
| COc1ccc(C2C(C#N)=C(N)N3C(=C2C#N)Sc2ccccc23)cc1 (stereo not drawn) | 6.31 µM [rising, single point] |  |
| O=C(Cc1cc(=O)[nH][nH]1)N/N=C/c1ccccc1[N+](=O)[O-] | 23.1 µM [rising, partial curve, poor fit] |  |
| CC(=NNC(=O)c1cc(C)nc2ccccc12)c1ccc(N2CCOCC2)cc1 | 18.4 µM [rising, single point] | 20.6 µM [falling, partial curve] |
| CC(C)(C)c1ccc(CN(Cc2ccco2)Cc2nnnn2C2CCCC2)cc1 |  | 1.12 µM [rising, full curve, poor fit] |
| Clc1ccc(OCc2nn3c(C4CCCCC4)nnc3s2)cc1 | 1.84 µM [falling, partial curve] |  |
| Cc1cccc(NC(=O)C2CCCN2C(=O)Oc2ccccc2)c1C (stereo not drawn) | 16.4 µM [rising, partial curve, poor fit] |  |
| CC(C)=CCN1CCN(Cc2ccc(Sc3nncn3C)o2)CC1CCO (stereo not drawn) | 22.4 µM [rising, single point] | 22.4 µM [falling, single point] |
| COc1ccccc1-n1cnc2sc(-c3ccccc3)cc2c1=O | 0.126 µM [falling, full curve] |  |

2 records picked at random from the list so far:

| SMILES | AC50 [1] | AC50 [2] |
| --- | --- | --- |
| Cn1c(=O)c2c(nc(CN3CCC(C(N)=O)CC3)n2CCCc2ccccc2)n(C)c1=O | 13 µM [falling, single point] |  |
| Cc1cccc(/C=N/NC(=O)Cc2ccc(Cl)cc2)c1O | 0.282 µM [rising, full curve, poor fit] |  |

Later entries:

| SMILES | AC50 [1] | AC50 [2] |
| --- | --- | --- |
| COCc1nnc(NC(=O)CCS(=O)(=O)c2ccccc2)s1 | 17.8 µM [falling, partial curve] |  |
| COc1cc2c(-c3ccc4c(c3)OCO4)c(-c3ccsc3)oc(=O)c2cc1OC | 4.61 µM [falling, single point] |  |
| C=CCNC(=O)COC(=O)c1c2c(nc3ccccc13)CCC2 | 0.631 µM [falling, full curve] |  |
| Clc1cccc(-c2nc(NCCN3CCOCC3)c3ccccc3n2)c1 | 17.8 µM [falling, single point] |  |
| CCOC(=O)N1CCN(C(=O)c2cc(COc3ccc(OC)cc3Cl)on2)CC1 | 25.1 µM [falling, single point] |  |
| O=C(Nc1ccccc1F)Nc1ccc([N+](=O)[O-])cc1Cl | 0.316 µM [rising, full curve, poor fit] |  |
| Cc1ccc(-c2cnn(-c3ccccc3)c2N)cc1 | 3.55 µM [falling, full curve] |  |
| COCCNC(=O)c1cccc(OC2CCN(Cc3cccc(C(C)=O)c3)CC2)c1 | 22.4 µM [rising, single point] |  |
| CCOC(=O)c1csc(NNC=O)n1 | 0.731 µM [rising, full curve, poor fit] |  |
| COc1ccc(-c2csc(Nc3ccc(O)cc3)n2)cc1 | 1.41 µM [falling, full curve] |  |
| O=C(/C=C/c1cccc(C(F)(F)F)c1)Nc1cccc(C(F)(F)F)c1 | 35.5 µM [falling, single point] |  |
| Cn1nnc2cc(C(=O)Nc3ccc(Cl)cc3)ccc21 | 31.6 µM [rising, single point] |  |
| NC(=O)c1ccccc1NC(=O)Nc1ccc(F)c(Cl)c1 | 12.6 µM [falling, partial curve, poor fit] |  |
| COc1cc(OC)cc(-c2cc3nc(C)c(CCC(=O)NCc4ccccc4)c(C)n3n2)c1 | 6.31 µM [falling, partial curve] |  |
| O=C1CS/C(=N\C(=O)N2c3ccccc3Sc3ccccc32)N1 | 25.9 µM [rising, single point] |  |
| O=C(CNC(=O)c1ccccc1Cl)Nc1ccc(F)cc1 | 5.8 µM [falling, partial curve] |  |
| Cc1ccccc1Nc1nn2c(=O)c3ccccc3nc2s1 | 0.224 µM [falling, full curve, poor fit] |  |
| COc1ccccc1Nc1nc2nonc2nc1N1CCCCC1C (stereo not drawn) | 32.6 µM [rising, partial curve, poor fit] |  |
| Cc1ccc(-n2c(SCc3ccc(C#N)cc3)nnc2-c2ccccn2)cc1 | 1.41 µM [rising, partial curve, poor fit] |  |
| NC(=O)C1(N2CCCCC2)CCN(CC(=O)Nc2ccccc2-c2ccccc2)CC1 | 11.6 µM [falling, single point] |  |
| O=C(N/N=C/c1ccccn1)c1c[nH]c2ccccc12 | 22.4 µM [falling, single point] |  |
| Cc1cc2oc(C(=O)Nc3nonc3C)c(C)c2cc1C | 8.91 µM [rising, partial curve] |  |
